Test results taken from publication PMC2993708.
The exact form of at least one protein or probe is not confirmed. For some of these results: At least one result comes from cells or an extract, where the contact may be indirect. For some of these results: The comparison behind a weaker result is the experiment's own reference, which may not be listed here. For some of these results: Where a protein sequence is shown, tags need not be part of it.

Tests used:
[1] = target: T1, CTCF (transfected, HEK293T extract) (UniProt Q61164); assay: competition with a labelled probe; conditions: EMSA: 20 mM Hepes pH 7.4, 20 mM KCl, 1 mM MgCl2, 5 mM DTT, 10 uM ZnCl2, 10% glycerol, 100 ug/ml BSA, 0.02% NP40, 2-4 ug salmon sperm DNA, room temperature 20 min, 5% gel, protein in a lysate after overexpression, label: 32P end label
T1 sequence (looked up, limits assumed): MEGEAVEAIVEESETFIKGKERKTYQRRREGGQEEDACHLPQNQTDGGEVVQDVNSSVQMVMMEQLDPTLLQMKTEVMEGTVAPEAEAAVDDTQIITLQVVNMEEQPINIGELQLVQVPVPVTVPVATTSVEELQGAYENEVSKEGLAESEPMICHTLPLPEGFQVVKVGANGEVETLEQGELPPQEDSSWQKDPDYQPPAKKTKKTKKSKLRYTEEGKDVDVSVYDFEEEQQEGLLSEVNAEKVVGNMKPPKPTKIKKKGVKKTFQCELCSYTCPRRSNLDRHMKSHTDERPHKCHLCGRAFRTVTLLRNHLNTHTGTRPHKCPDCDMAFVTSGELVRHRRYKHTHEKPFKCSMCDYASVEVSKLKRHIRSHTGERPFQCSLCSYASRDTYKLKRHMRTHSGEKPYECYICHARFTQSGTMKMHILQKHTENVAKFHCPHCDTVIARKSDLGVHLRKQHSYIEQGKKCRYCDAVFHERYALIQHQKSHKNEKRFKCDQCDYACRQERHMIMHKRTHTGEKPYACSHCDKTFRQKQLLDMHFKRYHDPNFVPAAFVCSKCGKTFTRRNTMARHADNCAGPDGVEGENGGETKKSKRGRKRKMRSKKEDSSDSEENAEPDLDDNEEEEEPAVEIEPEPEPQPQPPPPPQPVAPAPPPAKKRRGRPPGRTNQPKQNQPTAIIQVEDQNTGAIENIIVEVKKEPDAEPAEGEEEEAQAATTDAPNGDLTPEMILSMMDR

[2] = target: T1, CTCF (transfected, HEK293T extract); assay: EMSA; conditions: EMSA: 20 mM Hepes pH 7.4, 20 mM KCl, 1 mM MgCl2, 5 mM DTT, 10 uM ZnCl2, 10% glycerol, 100 ug/ml BSA, 0.02% NP40, 2-4 ug salmon sperm DNA, room temperature 20 min, 5% gel, protein in a lysate after overexpression, label: 32P end label
[3] = target: T2, CTCF (endogenous, HEK293T nuclear extract) (UniProt P49711); assay: EMSA; conditions: EMSA: 20 mM Hepes pH 7.4, 20 mM KCl, 1 mM MgCl2, 5 mM DTT, 10 uM ZnCl2, 10% glycerol, 100 ug/ml BSA, 0.02% NP40, 2-4 ug salmon sperm DNA; room temperature 20 min; 5% gel; protein in an extract; label: 32P end label
T2 sequence (looked up, limits assumed): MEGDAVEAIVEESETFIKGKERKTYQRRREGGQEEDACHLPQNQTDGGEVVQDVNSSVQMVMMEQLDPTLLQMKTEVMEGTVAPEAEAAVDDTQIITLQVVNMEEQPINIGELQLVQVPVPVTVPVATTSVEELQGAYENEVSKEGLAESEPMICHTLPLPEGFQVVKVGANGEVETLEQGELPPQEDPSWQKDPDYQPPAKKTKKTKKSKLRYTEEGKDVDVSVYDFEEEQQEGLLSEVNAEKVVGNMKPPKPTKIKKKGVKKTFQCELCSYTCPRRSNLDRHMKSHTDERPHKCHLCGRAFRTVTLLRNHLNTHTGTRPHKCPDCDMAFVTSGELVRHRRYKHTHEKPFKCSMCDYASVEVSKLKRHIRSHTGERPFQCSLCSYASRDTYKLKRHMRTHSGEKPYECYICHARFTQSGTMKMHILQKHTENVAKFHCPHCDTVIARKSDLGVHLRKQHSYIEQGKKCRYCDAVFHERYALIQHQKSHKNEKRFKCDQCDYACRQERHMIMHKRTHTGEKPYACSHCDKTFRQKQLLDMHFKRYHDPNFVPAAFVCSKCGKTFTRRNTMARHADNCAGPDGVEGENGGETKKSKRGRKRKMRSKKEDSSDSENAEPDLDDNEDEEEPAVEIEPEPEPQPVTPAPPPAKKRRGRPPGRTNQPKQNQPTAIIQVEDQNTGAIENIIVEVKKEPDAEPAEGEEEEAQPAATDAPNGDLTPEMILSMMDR

[4] = target: GST-CTCF-ZF (UniProt Q61164); assay: EMSA; conditions: EMSA: 20 mM Hepes pH 7.4, 20 mM KCl, 1 mM MgCl2, 5 mM DTT, 10 uM ZnCl2, 10% glycerol, 100 ug/ml BSA, 0.02% NP40, 2-4 ug salmon sperm DNA; room temperature 20 min; 5% gel; recombinant protein; protein details: GST (N-terminal); label: 32P end label

Q: Does “CTAGATGAAGAAATTGAGACCTCTACTGGATAGCTATGGTATTTACGTGTCTA / AGCTTAGACACGTAAATACCATAGCTATCCAGTAGAGGTCTCAATTTCTTCAT [F1 (chicken lysozyme)]” bind ([1]; relative to R30, 300-fold excess competitor)?
A: binds more weakly

Q: Does “TGTATGGTTGATCGAGACCATTGTCGGGCAATACCTAGTAGTGACAAGTTTCGGGAACGCTCCAGGCCTCT (double strand) [R30mut]” bind ([2]; relative to R30)?
A: binds more weakly

Q: Which results are given for “TGTATGGTTGATCGAGACCATTGTCGGGCGACACCTAGTGGTGACAAGTTTCGGGAACGCTCCAGGCCTCT (double strand) [R30-CmE (R30met)]”?
A: binding result ([2]; slightly less than unmethylated R30, 5-methyl-dC at strand 1 positions 25 and 29, strand 2 positions 42 and 46): binds more weakly; binding result ([1]; poorer competitor than unmethylated R30, 5-methyl-dC at strand 1 positions 25 and 29, strand 2 positions 42 and 46): binds more weakly

Q: Which results are given for “TGTATGGTTGATCGAGACCATTGTCGGGCGACACCTAGTGGTGACAAGTTTCGGGAACGCTCCAGGCCTCT (double strand) [R30]”?
A: binding result [3]: binds; binding result [2]: binds; binding result [4]: binds
